Results taken from PubChem BioAssay AID493014 (National Center for Advancing Translational Sciences (NCATS), 2011).
The other results are listed elsewhere or left out. These are further read-outs of the screen, such as a control signal, another cell line or another target. No call is given for them. The list favours compounds with an active or inconclusive main result. Potencies come from curve fits of mixed quality, noted in brackets.

Assay: qHTS Assay to Find Inhibitors of Chronic Active B-Cell Receptor Signaling
Details: ABC-DLBCL IkBa-CBG/CBR reporter, luminescence ratio (green luciferase fused to IkBa over red control in TMD8 lymphoma cells), 4 h
Outline: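 TMD8 human ABC-DLBCL cells with doxycycline-inducible IκBα–green luciferase fusion and unfused red luciferase, in 0.5% FBS medium; compounds up to 46 uM, 4 h at 37C. Green/red luminescence ratio, filter-overlap corrected, fitted to concentration-response curves.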

[1] = measured here: CBR red luminescence, cell number
[2] = measured here: IkBa-CBG green luminescence

Row | Structure (SMILES) | AC50 [1] | AC50 [2]
1 | C=CS(=O)c1sc(Cl)c(N2CCOCC2)c1[N+](=O)[O-] (stereo unspecified) | 15.8 µM [falling, partial curve] | 31.6 µM [rising, single point]
2 | Cc1ccc(CCNC(=O)CN2C(=O)COc3ccc(S(=O)(=O)N4CCCC4)cc32)cc1 | 22.4 µM [rising, single point] | –
3 | Cc1ccc2[nH]c3c(N4CCOCC4)ncnc3c2c1 | 14.6 µM [rising, partial curve] | –
4 | CCOc1ccc2ccccc2c1/C=N/n1cncn1 | 6.51 µM [rising, partial curve, poor fit] | –
5 | Cn1nc(OCCOc2ccccc2)ccc1=O | 14.1 µM [rising, single point] | –
6 | CCN(CC)S(=O)(=O)c1ccc2nc(NC(=O)c3cccs3)sc2c1 | 32.6 µM [falling, single point] | –
7 | COc1ccc(NC(=O)COc2ccc(S(=O)(=O)N3CCOCC3)cc2C)cc1OC | 35.5 µM [rising, single point] | –
8 | Cc1ccc(CCNC(=O)C2CCC(=O)N2CCc2ccccc2)cc1 (stereo unspecified) | 11.2 µM [rising, partial curve, poor fit] | –
9 | CCc1cccc(NC(=O)CCCN2C(=O)C(c3ccccc3)Oc3cccnc32)c1 (stereo unspecified) | 11.2 µM [falling, partial curve, poor fit] | –
10 | Cc1ccc(/C(=N\O)c2oc3c(C)c4oc(=O)cc(C)c4cc3c2C)cc1 | 18.4 µM [rising, single point] | –
11 | C=CCn1c(C)c(C(C)=O)c(N2CCOCC2)nc1=S | 41.1 µM [falling, partial curve, poor fit] | 5.17 µM [rising, partial curve, poor fit]
12 | N#CC1=C(N)S[C@H](C(=O)C23CC4CC(CC(C4)C2)C3)[C@H]1c1ccncc1 | 29.1 µM [falling, single point] | –
13 | CCCC(=O)Nc1nc(-c2ccc(Cl)s2)cs1 | 14.1 µM [falling, single point] | –
14 | COc1cccc(CN(C)C(=O)CNC(=O)c2sc3ccccc3c2Cl)c1OC | 18.4 µM [falling, partial curve, poor fit] | –
15 | Fc1cccc(CN2CCN(Cc3nc(CCc4ccccc4)no3)CC2)c1 | 12.6 µM [rising, single point] | –
16 | NC(=O)c1ccsc1NC(=O)c1ccc([N+](=O)[O-])o1 | 14.6 µM [falling, partial curve] | –
17 | COc1ccc(Nc2nc(C(=O)N3CCc4cc(OC)c(OC)cc4C3)cs2)cc1 | 1.58 µM [rising, partial curve, poor fit] | –
18 | O=C(O)CC1(CC(=O)Nc2ccc(Br)cc2)CCCCC1 | 7.08 µM [falling, partial curve] | –
19 | Cc1cc(C)nc(N2CCCC(C(=O)Nc3ccc4c(c3)OCCO4)C2)n1 (stereo unspecified) | 5.62 µM [falling, single point] | –
20 | O=C(Nc1cccc(F)c1)c1cc(S(=O)(=O)NCCC2=CCCCC2)ccc1F | 32.6 µM [falling, single point] | 23.1 µM [rising, single point]
21 | CCc1cc(=O)oc2cc3occ(C)c3cc12 | 0.0146 µM [rising, full curve, poor fit] | –

Row | Structure (SMILES) | AC50 [1] | AC50 [2]
22 | O=C(CN1C(=O)/C(=C\c2ccc(C(F)(F)F)cc2)Sc2ccccc21)NCc1ccco1 | 23.1 µM [rising, single point] | –
23 | Cc1cc(OC(F)F)ccc1NC(=S)NC1CCCC1 | 1.12 µM [rising, partial curve] | –
24 | O=C(N/N=C\c1ccc(-c2ccc([N+](=O)[O-])cc2)o1)c1ccc2c(c1)OCO2 | 3.66 µM [falling, full curve] | –
25 | COc1ccccc1N1CCN(C(=O)CSc2nc(C)c(C)c(=O)[nH]2)CC1 | 1.58 µM [falling, full curve] | –
26 | COc1ccc(OC)c(CN(CCN2CCOCC2)C(=O)Nc2ccccc2)c1 | 2.06 µM [rising, partial curve, poor fit] | –
27 | Clc1ccc(-n2nnnc2-c2cnc3ccccc3c2-c2ccccc2)cc1 | 20 µM [falling, partial curve, poor fit] | –
28 | CCN(CC)S(=O)(=O)c1ccc(O)c(C(=O)OCC(=O)Nc2ccc(OC(F)(F)F)cc2)c1 | 11.2 µM [rising, partial curve, poor fit] | –
29 | CC1(C)CC(C)(c2ccc(O)cc2O)N(c2ccc3ccccc3c2)C(=S)N1 (stereo unspecified) | 8.2 µM [falling, partial curve, poor fit] | –
30 | O=C(O)c1ccc(COc2ccc3c4c(c(=O)oc3c2)CCC4)o1 | 1.78 µM [falling, full curve, poor fit] | –
31 | Nc1ncnc2nc(SCCOc3ccc(Cl)cc3)[nH]c12 | 4.11 µM [rising, full curve, poor fit] | –
32 | O=c1cc(-c2ccccc2)nc2nc(CCc3ccccc3)[nH]n12 | 2.06 µM [falling, full curve] | –
33 | C=CCC[C@@H](Cc1ccc(F)cc1)C(=O)OC[C@@H](Cc1c[nH]c2ccccc12)NC(=O)[C@H](CC=C)CC(=O)N(CCO)Cc1ccccc1 | 18.4 µM [falling, partial curve, poor fit] | –
34 | CCCNC(=O)C/C(C)=N/NC(=O)C(=O)Nc1ccccn1 | 1.41 µM [falling, full curve, poor fit] | –
35 | CN(C)S(=O)(=O)c1ccc(C(=O)NCC2CC2(Cl)Cl)cc1 (stereo unspecified) | 7.94 µM [falling, full curve, poor fit] | –
36 | COc1ccc(S(=O)(=O)N2CCCCC2)cc1NC(=O)c1[nH]c(C)c(C(C)=O)c1C | 3.66 µM [rising, full curve, poor fit] | –
37 | O=c1c2ccccc2sn1-c1cc(S(=O)(=O)N2CCOCC2)ccc1N1CCCC1 | 18.4 µM [rising, single point] | –
38 | CC(C)Cn1c(N)c(C(=O)NCC2CCCO2)c2nc3ccccc3nc21 (stereo unspecified) | 12.6 µM [falling, partial curve, poor fit] | –
39 | Cc1cc(-c2[nH]nc3c2C(c2cccc(O)c2)C(C#N)=C(N)O3)c(C)s1 (stereo unspecified) | 32.6 µM [falling, single point] | –
40 | COc1ccccc1OCCNC(=O)C(=O)c1c[nH]c2ccccc12 | 3.98 µM [falling, full curve, poor fit] | –
41 | O=C(NCC1CCCO1)c1cc2c([nH]c3ccccc32)c(-c2cccc(Br)c2)n1 (stereo unspecified) | 0.631 µM [falling, full curve, poor fit] | –
42 | Cn1c(CN2CCC(C(N)=O)CC2)c(C#N)c2ccccc21 | 0.366 µM [falling, full curve, poor fit] | –

Reformatted: 3 of the compounds above.

| Row | Structure (SMILES) | AC50 [1] | AC50 [2] |
| --- | --- | --- | --- |
| 36 | COc1ccc(S(=O)(=O)N2CCCCC2)cc1NC(=O)c1[nH]c(C)c(C(C)=O)c1C | 3.66 µM [rising, full curve, poor fit] | – |
| 37 | O=c1c2ccccc2sn1-c1cc(S(=O)(=O)N2CCOCC2)ccc1N1CCCC1 | 18.4 µM [rising, single point] | – |
| 38 | CC(C)Cn1c(N)c(C(=O)NCC2CCCO2)c2nc3ccccc3nc21 (stereo unspecified) | 12.6 µM [falling, partial curve, poor fit] | – |

Later entries.

Row | Structure (SMILES) | AC50 [1] | AC50 [2]
43 | CC(C)NC1=C(Cl)C(=O)c2ccccc2C1=O | 4.11 µM [rising, single point] | –
44 | CCN(C(=O)COC(=O)c1ccc(C)c(S(=O)(=O)N2CCCCC2)c1)C1CCS(=O)(=O)C1 (stereo unspecified) | 14.6 µM [falling, partial curve] | –
45 | O=C(Nc1ccc([N+](=O)[O-])cc1Br)c1cc2ccccc2nc1Cl | 5.62 µM [rising, full curve, poor fit] | –
46 | O=C1C=C(c2ccccc2)C[C@@H](c2ccc(Cl)cc2)C1 | 16.4 µM [rising, single point] | –
47 | O=C(CCl)Nc1ccc(-c2ccccc2)cc1 | 35.5 µM [falling, partial curve, poor fit] | 7.08 µM [rising, partial curve, poor fit]
48 | CC1(O)CC(c2ccc(Cl)cc2)=NN1C(=O)c1ccc(Cl)cc1 (stereo unspecified) | 11.2 µM [falling, partial curve, poor fit] | –
49 | Cc1ccc(CNC(=O)COC(=O)[C@@H]2CC(O)CN2S(=O)(=O)c2ccc3c(c2)OCCO3)cc1 (stereo partly specified) | 1.84 µM [rising, full curve, poor fit] | –
50 | O=c1[nH]cccc1-c1nc2ccccc2n1Cc1cccc(Cl)c1 | 1 µM [rising, partial curve] | –
51 | O=C(Nc1ccc(F)cc1)C(Cc1ccccc1)n1cccc1 (stereo unspecified) | 0.708 µM [rising, full curve, poor fit] | –
52 | COc1cccc(C(=O)O/N=C(\N)c2ccc([N+](=O)[O-])cc2)c1OC | 0.224 µM [rising, full curve, poor fit] | –
53 | O=C(Nc1ccccn1)c1ccc2ccccc2n1 | 10 µM [falling, partial curve] | –
54 | COC(=O)C(C)Sc1ncnc2c1nnn2-c1ccc(F)cc1 (stereo unspecified) | 7.94 µM [falling, partial curve] | –
55 | COc1cc(/C=C/C(O)=C/C(=O)/C=C/c2ccc(O)cc2)ccc1O | 29.1 µM [falling, single point] | –
56 | CCCCN1Cc2c(nc3cc(-c4ccco4)[nH]n3c2=O)C1=O | 20 µM [falling, partial curve, poor fit] | –
57 | Cc1cc(C)cc(NC(=O)c2nnn(Cc3cc(C)ccc3C)c2N)c1 | 6.51 µM [falling, partial curve] | –
58 | CCCCCCCNC(=O)C1(CC2CC(c3cccc(Br)c3)=NO2)CCN(C(=O)OC(C)(C)C)CC1 (stereo unspecified) | 5.62 µM [rising, single point] | –
59 | O=C(Nc1ccccc1C(=O)Nc1nnc(C(F)(F)F)s1)c1ccccc1 | 4.47 µM [falling, full curve, poor fit] | –
60 | COc1ccc(Cn2c(CCCO)nc3ccccc32)cc1OC | 4.61 µM [rising, single point] | 6.51 µM [falling, partial curve, poor fit]
61 | CC(C)(C)Nc1c(-c2ccc(O)cc2)nc2ccc(Cl)cn12 | 12.6 µM [falling, partial curve] | –
